Data: patent US20220098290A1 (JUNTENDO EDUCATIONAL FOUNDATION, published 2022)
Changes are numbered by the printed parent chain. These are yes or no findings as the source states them, for the method shown. Some entries that bind do so weakly or less than the wild type.

B1: clone B3 antibody (antibody, V domains shown)
VH: QVQLQQSGAELVKPGSSVKISCKASGYTFTRNFIHWIKQQPGNGLEWIGWIFPGDGDTEYNQKFNGKATLTADKSSSTAYMQLSSLTSEDSAVYFCARGNYNYEYFDYWGQGVMVTVSS
VL: DIQMTQSPASLSASLGETVSIECLASEDIYSYLAWYQQKPGKSPQLLIFAANRLQDGVPSRFSGSGSGTQFSLKISGMQPEDEGDYFCLQGSKFPYTFGPGTKLELN
notes: Rat monoclonal antibody purified from a hybridoma (WKY/Izm rat x mouse SP2 myeloma), detected with anti-rat IgG; also called rat clone B3 antibody
B2: clone C6 antibody (antibody, V domains shown)
VH: QVQLQQSGAELVKPGSSVKISCKASGYTFTSYFVHWIKQQPGDGLEWIGWIYPGDGDTEYNHKFNGKSTLTADRSSSTAYMQLSSLTSEDSAVYFCARGNYYDGREVMDAWGQGASVTVSS
VL: DVVLTQTPPTLSATIGQSVSISCRSSQSLLDSDGETYLNWLLQRPGQSPQLLIYSVSNLESGVPNRFSGSGSETDFTLKISGMEAEDLGVYYCMQATHGPYTFGAGTKLELK
notes: Rat monoclonal antibody purified from a hybridoma, detected with anti-rat IgG; also called rat clone C6 antibody
B3: clone G1 antibody (antibody, V domains shown)
VH: B2 VH with H62Q, S68A
VL: B2 VL with S48C, M83V, A96G
notes: Rat monoclonal antibody purified from a hybridoma, detected with anti-rat IgG; also called rat clone G1 antibody

target: purified Del 52 type mutant CALR protein (human) (UniProt P27797); assay: ELISA, antigen coated on the plate, 0-800 ng/mL antibody

binding, binds:
B1
B2
B3

target: Del 52 type mutant CALR protein labeled with a FLAG-tag downstream of the signal sequence at the amino-terminal, on the surface of UT-7/TPO cells (human) (UniProt P27797); assay: flow cytometry on UT-7/TPO cells

binding, binds:
B1
B2
B3

target: Ins 5 type mutant CALR protein labeled with a FLAG-tag downstream of the signal sequence at the amino-terminal, on the surface of UT-7/TPO cells (human) (UniProt P27797); assay: flow cytometry on UT-7/TPO cells

binding, binds:
B1
B2
B3

target: Del 52 type mutant CALR protein having a FLAG-tag inserted downstream of the signal sequence at the amino-terminal, cleavage type (human) (UniProt P27797); assay: immunoblot of culture supernatant of UT-7/TPO cells

binding, binds:
B1
B2
B3

target: Del 52 type mutant CALR protein having a FLAG-tag inserted downstream of the signal sequence at the amino-terminal, full-length type (human) (UniProt P27797); assay: as above

binding, binds:
B1
B2
B3

target: Ins 5 type mutant CALR protein having a FLAG-tag inserted downstream of the signal sequence at the amino-terminal, cleavage type (human) (UniProt P27797); assay: as above

binding, binds:
B1
B2
B3

target: Ins 5 type mutant CALR protein having a FLAG-tag inserted downstream of the signal sequence at the amino-terminal, full-length type (human) (UniProt P27797); assay: as above

binding, binds:
B1
B2
B3
